Data on one molecule can be found in patent US12440493B2, “Combination therapy for treating cancer comprising substituted piperazines” (Eli Lilly and Company, priority 2020, dated 2025).

The test system of this experiment is 2-HG production. The experiment is described as follows: Plasma 2-HG inhibition (LC-MS metabolite analysis in plasma of AML PDx model). The experiment is classed as in vivo, human. The settings on record: F: 50 mg/kg Midostaurin, QD, PO, one line per animal.

“And” between values parts separate entries of the source, which are not always exact repeats. Equal entries are not always repeated.

As to `CO[C@@H]1[C@H](N(C)C(=O)c2ccccc2)C[C@H]2O[C@]1(C)n1c3ccccc3c3c4c(c5c6ccccc6n2c5c31)C(=O)NC4` [Midostaurin, reference compound], the “% Inhibition of 2-HG” value is 17.254% and 40.521% and 66.37% and −26.601% and 49.298%.
